PubChem BioAssay AID1671195 | Yale University, 2021
Shown is one part, drawn at random, of about 22,000 reagents. About 1,510 of all reagents (6.9%) were called active. 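Active includes knockdowns raising or lowering LDL uptake; positive z-scores mean more uptake, negative mean less.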 No sequences are given here.

Aim: 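Knockdowns that increase or decrease uptake of fluorescent LDL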 (primary screen)
Cell system: human Huh7 hepatoma cells
Reagents: siRNA pool against human genes, 18 nM
Timing: about 2 to 2.5 days of knockdown, then 8 h LDL uptake
Treatment: DiI-labelled LDL at 30 µg/ml for 8 h, in lipoprotein-deficient serum medium
Measured: 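Fluorescent LDL signal imaged in cells, scaled to the plate median, robust z-score for each replicate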
Direction: robust z-score: higher = more LDL uptake after knockdown
Call rule: 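a gene counts as active if at least two replicate z-scores exceed ±2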

LOC389438 (retired record) (GeneID 389438): robust z-score, replicate 1 = 1.58; robust z-score, replicate 2 = 1.98; robust z-score, replicate 3 = 1.87; call = inactive
SAXO4 (GeneID 220004): robust z-score, replicate 1 = -0.527; robust z-score, replicate 2 = -0.516; robust z-score, replicate 3 = -0.22; call = inactive
OPRPN (GeneID 58503): robust z-score, replicate 1 = -0.531; robust z-score, replicate 2 = -0.488; robust z-score, replicate 3 = -0.285; call = inactive
MAGEB6B (GeneID 392433): robust z-score, replicate 1 = 0.0726; robust z-score, replicate 2 = 1.08; robust z-score, replicate 3 = 1.55; call = inactive
CCDC102A (GeneID 92922): robust z-score, replicate 1 = 0.874; robust z-score, replicate 2 = 1.41; robust z-score, replicate 3 = 1.73; call = inactive

The list goes on (2 carried over from the part before).
MAGEB6B (GeneID 392433): robust z-score, replicate 1 = 0.0726; robust z-score, replicate 2 = 1.08; robust z-score, replicate 3 = 1.55; call = inactive
CCDC102A (GeneID 92922): robust z-score, replicate 1 = 0.874; robust z-score, replicate 2 = 1.41; robust z-score, replicate 3 = 1.73; call = inactive
LPIN3 (GeneID 64900): robust z-score, replicate 1 = -0.535; robust z-score, replicate 2 = -0.129; robust z-score, replicate 3 = -0.683; call = inactive
MLH3 (GeneID 27030): robust z-score, replicate 1 = 1.48; robust z-score, replicate 2 = 1.01; robust z-score, replicate 3 = 1.14; call = inactive
LINC01465 (GeneID 283416): robust z-score, replicate 1 = -0.504; robust z-score, replicate 2 = -0.367; robust z-score, replicate 3 = -0.637; call = inactive
DCAF10 (GeneID 79269): robust z-score, replicate 1 = -0.237; robust z-score, replicate 2 = 0.00522; robust z-score, replicate 3 = -0.455; call = inactive
APOE (GeneID 348): robust z-score, replicate 1 = 0.138; robust z-score, replicate 2 = 0.907; robust z-score, replicate 3 = -0.532; call = inactive
GM2A (GeneID 2760): robust z-score, replicate 1 = -0.314; robust z-score, replicate 2 = -0.621; robust z-score, replicate 3 = -0.307; call = inactive
DCAF11 (GeneID 80344): robust z-score, replicate 1 = 0.421; robust z-score, replicate 2 = 0.419; robust z-score, replicate 3 = -0.0143; call = inactive
